According to paper doi:10.1101/2021.05.11.443667:
Like-named read-outs stand apart in the source and are kept apart here. No constants are given. Whether binding was seen depends on the method and setting. For part of these data: Binding seen in cells or lysates may run through a third protein. Some binding calls cover weakened binding; strength is not graded here.

The chains behind the UniProt entries cited, without tags or fusion partners. Residues count along the entry.
UniProt Q9D777, residues 96-241: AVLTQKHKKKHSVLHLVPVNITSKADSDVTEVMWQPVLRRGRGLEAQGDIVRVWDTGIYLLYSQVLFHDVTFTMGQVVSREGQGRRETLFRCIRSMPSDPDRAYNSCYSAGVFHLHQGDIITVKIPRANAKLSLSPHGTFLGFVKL

Experiments:
[1] = target: T1, serum soluble CD138 (syndecan-1) of MRL/Lpr mice (mouse (endogenous in MRL/Lpr serum)) (UniProt P18828); test: co-IP
T1 sequence: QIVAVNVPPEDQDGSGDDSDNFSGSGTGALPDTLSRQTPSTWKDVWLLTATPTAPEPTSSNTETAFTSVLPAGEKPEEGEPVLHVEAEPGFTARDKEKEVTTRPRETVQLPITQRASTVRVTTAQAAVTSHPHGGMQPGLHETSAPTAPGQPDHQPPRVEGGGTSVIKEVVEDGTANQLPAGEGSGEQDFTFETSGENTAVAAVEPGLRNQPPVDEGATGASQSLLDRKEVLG

[2] = target: T1, serum soluble CD138 (syndecan-1) of MRL/Lpr mice (mouse (endogenous in MRL/Lpr serum)); test: co-IP; remark: listed apart in the source
[3] = target: T2, recombinant mouse CD138 (syndecan-1) (mouse) (UniProt P18828); test: pull-down
T2 sequence: T1 sequence

binding [1] | binding [2] | binding [3] | Substance
binds | binds | – | serum APRIL of MRL/Lpr mice (from UniProt Q9D777 96-241) (ligand)
– | – | binds | recombinant APRIL (a proliferation inducing ligand) (from UniProt Q9D777 96-241)
